In the supplement of paper PMC6078165:
The reference is the same well before dosing, and untreated signal decays as well.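 Fibroblast labels name human fibroblasts: mostly primary ones from tissues such as uterus (C12385, HUF), lung (H6013), bone (Hs27A), adrenal (HADF) and skin (WS1), plus mammary HMF and breast cancer-associated Hs343T. The cancer cells are basal-like or mesenchymal-like triple-negative breast cancer lines. The paper calls a changed response a hit when it shifts by more than 3x the replicate standard deviation. The tissue of the other fibroblasts is not given here.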 Numbered stars: 1 amine (or outer) side, 2 acyl side, 3 side chain; on linkers, the order of the positions; unused ones are H or OH. Bridge positions count the residues as written; N and C are the ends. Square brackets hold non-standard residues; d marks the D form. Peptide text beside a SMILES is read from it. I, II: the chains in the order shown. Actinocin(9to1) = Cc1c2oc3c(C)ccc(C(=O)[*:1])c3nc-2c(C(=O)[*:2])c(N)c1=O; NMeV = CN[C@H](C(=O)O)C(C)C; Sar = CNCC(=O)O

Tested on: HCC1143
Test: relative JC-1 red fluorescence (viability) vs pre-drug, coculture with fibroblast (fraction); higher = more viable cancer cells
Experimental: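 JC-1 labelled TNBC cells cocultured 1:1 (1,500 cells each) with CellTrace Violet stained primary or stromal fibroblasts in 384-well plates in FluoroBrite medium, treated with one of 42 anticancer drugs at 0.1, 1, 10 or 100 uM. JC-1 red fluorescence (mitochondrial integrity in cancer cells only) was read by plate reader every 8 h for 72 h. Values are normalised to each well's pre-drug value. The stock of one drug was tenfold lower, so its dose labels may be too high.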

Cc1c2oc3c(C)ccc(C(=O)N[C@@H]4C(=O)N[C@H](C(C)C)C(=O)N5CCC[C@H]5C(=O)N(C)CC(=O)N(C)[C@@H](C(C)C)C(=O)O[C@@H]4C)c3nc-2c(C(=O)N[C@@H]2C(=O)N[C@H](C(C)C)C(=O)N3CCC[C@H]3C(=O)N(C)CC(=O)N(C)[C@@H](C(C)C)C(=O)O[C@@H]2C)c(N)c1=O [Dactinomycin] (I: T[dV]P[Sar][NMeV] / II: T[dV]P[Sar][NMeV]; ester I:1-I:C, II:1-II:C; linker I:N-II:N via Actinocin(9to1))
relative JC-1 red fluorescence
Conditions	8 h	16 h	24 h	32 h	40 h	48 h	56 h	64 h	72 h
10 µM, coculture fibroblast: C12385	0.805	0.7134	0.632	0.5682	0.5018	0.4762	0.455	0.43202	0.4262
10 µM, coculture fibroblast: H6013	0.73	0.646	0.599	0.573	0.533	0.543	0.525	0.52	0.462
10 µM, coculture fibroblast: H6019	0.7603	0.636	0.548	0.472	0.422	0.404	0.374	0.36	0.353
10 µM, coculture fibroblast: H6076	0.789	0.75	0.679	0.641	0.562	0.53	0.497	0.465	0.483
10 µM, coculture fibroblast: H6231	0.802	0.833	0.819	0.781	0.755	0.731	0.696	0.674	0.68
10 µM, coculture fibroblast: HADF	0.7231	0.636	0.5863	0.557	0.4604	0.455	0.429	0.417	0.367
10 µM, coculture fibroblast: HCFa	0.747	0.643	0.592	0.563	0.504	0.503	0.484	0.473	0.427
10 µM, coculture fibroblast: HCPF	0.81	0.8221	0.762	0.665	0.655	0.608	0.565	0.536	0.537
10 µM, coculture fibroblast: HHSteC	0.8513	0.766	0.703	0.63	0.568	0.559	0.518	0.506	0.443
10 µM, coculture fibroblast: HMF	0.789	0.782	0.682	0.609	0.577	0.538	0.503	0.466	0.459
10 µM, coculture fibroblast: HPFa	0.852	0.78	0.742	0.649	0.596	0.585	0.549	0.54	0.532
10 µM, coculture fibroblast: HUF	0.854	0.755	0.672	0.561	0.485	0.461	0.416	0.392	0.377
10 µM, coculture fibroblast: Hs5	0.849	0.83	0.749	0.722	0.631	0.586	0.567	0.55	0.564
10 µM, coculture fibroblast: Hs27A	0.6875	0.603	0.548	0.541	0.47	0.502	0.482	0.478	0.397
10 µM, coculture fibroblast: Hs343T	0.821	0.804	0.723	0.642	0.585	0.532	0.498	0.48	0.466
10 µM, coculture fibroblast: WS1	0.774	0.658	0.597	0.515	0.459	0.441	0.416	0.399	0.393
100 µM, coculture fibroblast: C12385	0.7606	0.651	0.573	0.509	0.451	0.429	0.399	0.371	0.355
100 µM, coculture fibroblast: H6013	0.683	0.593	0.539	0.503	0.463	0.464	0.435	0.418	0.351
100 µM, coculture fibroblast: H6019	0.7744	0.681	0.619	0.537	0.487	0.479	0.45	0.425	0.417
100 µM, coculture fibroblast: H6076	0.746	0.683	0.616	0.58	0.521	0.505	0.477	0.4597	0.4611
100 µM, coculture fibroblast: H6231	0.78	0.809	0.752	0.655	0.649	0.618	0.569	0.539	0.525
100 µM, coculture fibroblast: HADF	0.701	0.633	0.577	0.553	0.466	0.453	0.43	0.4162	0.377
100 µM, coculture fibroblast: HCFa	0.739	0.647	0.583	0.543	0.483	0.472	0.443	0.424	0.377
100 µM, coculture fibroblast: HCPF	0.783	0.7787	0.731	0.642	0.614	0.565	0.527	0.501	0.498
100 µM, coculture fibroblast: HHSteC	0.774	0.675	0.615	0.564	0.499	0.495	0.461	0.45	0.383
100 µM, coculture fibroblast: HMF	0.758	0.785	0.707	0.616	0.588	0.557	0.51	0.479	0.466
100 µM, coculture fibroblast: HPFa	0.85	0.75	0.702	0.611	0.562	0.564	0.534	0.532	0.521
100 µM, coculture fibroblast: HUF	0.825	0.737	0.66	0.557	0.491	0.46	0.412	0.392	0.375
100 µM, coculture fibroblast: Hs5	0.8386	0.8208	0.749	0.716	0.632	0.6	0.5775	0.561	0.562
100 µM, coculture fibroblast: Hs27A	0.6744	0.5649	0.514	0.508	0.415	0.435	0.4085	0.393	0.339
100 µM, coculture fibroblast: Hs343T	0.762	0.781	0.682	0.576	0.501	0.457	0.411	0.389	0.376
100 µM, coculture fibroblast: WS1	0.7788	0.672	0.595	0.519	0.461	0.452	0.423	0.409	0.4
